# Reference: the supplement of paper PMC8728848
# Some of the results follow.
# B1: Flo11 (Saccharomyces cerevisiae), P08640 (protein)
# chain: MQRPFLLAYLVLSLLFNSALGFPTALVPRGSSEGTSCNSIVNGCPNLDFNWHMDQQNIMQYTLDVTSVSWVQDNTYQITIHVKGKENIDLKYLWSLKIIGVTGPKGTVQLYGYNENTYLIDNPTDFTATFEVYATQDVNSCQVWMPNFQIQFEYLQGSAAQYASSWQWGTTSFDLSTGCNNYDNQGHSQTDFPGFYWNIDCDNNCGGTKSSTTTSSTSESSTTTSSTSESSTTTSSTSESSTTTSSTSESSTSSSTTAPATPTTTSCTKEKPTPPTTTSCTKEKPTPPHHDTTPCTKKKTTTSKTCTKKTTTPVPTPSSSTTESSSAPVPTPSSSTTESSSAPVTSSTTESSSAPVPTPSSSTTESSSAPVTSSTTESSSAPVTSSTTESSSAPVPTPSSSTTESSSAPVTSSTTESSSAPVTSSTTESSSAPVTSSTTESSSAPVTSSTTESSSAPVPTPSSSTTESSSAPVTSSTTESSSAPVPTPSSSTTESSSAPVTSSTTESSSAPVPTPSSSTTESSSAPAPTPSSSTTESSSAPVTSSTTESSSAPVPTPSSSTTESSSTPVTSSTTESSSAPVPTPSSSTTESSSAPVPTPSSSTTESSSAPAPTPSSSTTESSSAPVTSSTTESSSAPVPTPSSSTTESSSAPVPTPSSSTTESSSAPVPTPSSSTTESSSAPVTSSTTESSSAPVTSSTTESSSAPVPTPSSSTTESSSAPVPTPSSSTTESSSAPVPTPSSSTTESSSAPVTSSTTESSSAPVPTPSSSTTESSSAPVPTPSSSTTESSSAPVPTPSSSTTESSVAPVPTPSSSSNITSSAPSSTPFSSSTESSSVPVPTPSSSTTESSSAPVSSSTTESSVAPVPTPSSSSNITSSAPSSIPFSSTTESFSTGTTVTPSSSKYPGSQTETSVSSTTETTIVPTKTTTSVTTPSTTTITTTVCSTGTNSAGETTSGCSPKTVTTTVPTTTTTSVTTSSTTTITTTVCSTGTNSAGETTSGCSPKTITTTVPCSTSPSETASESTTTSPTTPVTTVVSTTVVTTEYSTSTKPGGEITTTFVTKNIPTTYLTTIAPTPSVTTVTNFTPTTITTTVCSTGTNSAGETTSGCSPKTVTTTVPCSTGTGEYTTEATTLVTTAVTTTVVTTESSTGTNSAGKTTTGYTTKSVPTTYVTTLAPSAPVTPATNAVPTTITTTECSAATNAAGETTSVCSAKTIVSSASAGENTAPSATTPVTTAIPTTVITTESSVGTNSAGETTTGYTTKSIPTTYITTLIPGSNGAKNYETVATATNPISIKTTSQLATTASASSVAPVVTSPSLTGPLQSASGSAVATYSVPSISSTYQGAANIKVLGNFMWLLLALPVVF
# What was measured:
# Test in all cases: glycan array binding signal (z-score within array); higher = stronger binding
# Conditions in all cases: glycan notation: IUPAC condensed, linker removed
# [1] = biological target: Gal(b1-3)GlcNAc(a1-6)Gal(b1-4)GlcNAc
# Method in brief: (§1)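 Columns mapping to the same glycan were averaged after glycan names were converted to IUPAC-condensed notation. The data come from 3228 arrays in the Consortium for Functional Glycomics database, limited to those with an available protein sequence. Binding is reported as a within-array Z-score averaged across arrays of one protein sequence and across linkers.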
# [2] = biological target: Gal(b1-3)GlcNAc(b1-2)Man(a1-3)[Gal(b1-3)GlcNAc(b1-2)Man(a1-6)]Man(b1-4)GlcNAc(b1-4)GlcNAc
# Method in brief: as §1
# [3] = biological target: Gal(b1-3)GlcNAc(b1-2)Man(a1-3)[Gal(b1-3)GlcNAc(b1-2)Man(a1-6)]Man(b1-4)GlcNAc(b1-4)[Fuc(a1-6)]GlcNAc
# Method in brief: as §1
# [4] = biological target: Gal(b1-3)GlcNAc(b1-2)[Gal(b1-3)GlcNAc(b1-6)]Man(a1-6)[Gal(b1-3)GlcNAc(b1-2)Man(a1-3)]Man(b1-4)GlcNAc(b1-4)GlcNAc
# Method in brief: as §1
# [5] = biological target: Gal(b1-3)GlcNAc(b1-3)Gal(b1-3)GlcNAc
# Method in brief: as §1
# [6] = biological target: Gal(b1-3)GlcNAc(b1-3)Gal(b1-4)Glc
# Method in brief: as §1
# [7] = biological target: Gal(b1-3)GlcNAc(b1-3)Gal(b1-4)GlcNAc
# Method in brief: as §1
# [8] = biological target: Gal(b1-3)GlcNAc(b1-3)Gal(b1-4)GlcNAc(b1-6)[Gal(b1-3)GlcNAc(b1-3)]Gal(b1-4)Glc
# Method in brief: as §1
# [9] = biological target: Gal(b1-3)GlcNAc(b1-3)Gal(b1-4)[Fuc(a1-3)]GlcNAc(b1-6)[Gal(b1-3)GlcNAc(b1-3)]Gal(b1-4)Glc
# Method in brief: as §1
# [10] = biological target: Gal(b1-3)GlcNAc(b1-3)GalNAc
# Method in brief: as §1
# [11] = biological target: Gal(b1-3)GlcNAc(b1-6)Gal(b1-4)GlcNAc
# Method in brief: as §1
# [12] = biological target: Gal(b1-3)[Fuc(a1-4)]GlcNAc
# Method in brief: as §1
# [13] = biological target: Gal(b1-3)[Fuc(a1-4)]GlcNAc(b1-2)Man(a1-3)[Gal(b1-3)[Fuc(a1-4)]GlcNAc(b1-2)Man(a1-6)]Man(b1-4)GlcNAc(b1-4)GlcNAc
# Method in brief: as §1
# [14] = biological target: Gal(b1-3)[Fuc(a1-4)]GlcNAc(b1-2)Man(a1-3)[Gal(b1-3)[Fuc(a1-4)]GlcNAc(b1-2)Man(a1-6)]Man(b1-4)GlcNAc(b1-4)[Fuc(a1-6)]GlcNAc
# Method in brief: as §1
# [15] = biological target: Gal(b1-3)[Fuc(a1-4)]GlcNAc(b1-3)Gal(b1-3)[Fuc(a1-4)]GlcNAc
# Method in brief: as §1
# [16] = biological target: Gal(b1-3)[Fuc(a1-4)]GlcNAc(b1-3)Gal(b1-4)GlcNAc
# Method in brief: as §1
# [17] = biological target: Gal(b1-3)[Fuc(a1-4)]GlcNAc(b1-3)Gal(b1-4)[Fuc(a1-3)]GlcNAc
# Method in brief: as §1
# [18] = biological target: Gal(b1-3)[GlcNAc(b1-6)]GalNAc
# Method in brief: as §1
# [19] = biological target: Gal(b1-3)[Neu5Ac(a2-6)]GalNAc
# Method in brief: as §1
# [20] = biological target: Gal(b1-3)[Neu5Ac(a2-6)]GlcNAc(b1-6)Gal(b1-4)Glc
# Method in brief: as §1
# [21] = biological target: Gal(b1-3)[Neu5Ac(b2-6)]GalNAc
# Method in brief: as §1
# Gal(b1-4)Gal = biological target: Gal(b1-4)Gal
# Method in brief: as §1
# [22] = biological target: Gal(b1-4)GalNAc(a1-3)[Fuc(a1-2)]Gal(b1-4)GlcNAc
# Method in brief: as §1
# [23] = biological target: Gal(b1-4)GalNAc(b1-3)[Fuc(a1-2)]Gal(b1-4)GlcNAc
# Method in brief: as §1
# Gal(b1-4)Glc = biological target: Gal(b1-4)Glc
# Method in brief: as §1
# Gal(b1-4)Glc6S = biological target: Gal(b1-4)Glc6S
# Method in brief: as §1
# Gal(b1-4)GlcNAc = biological target: Gal(b1-4)GlcNAc
# Method in brief: as §1
# [24] = biological target: Gal(b1-4)GlcNAc(a1-6)Gal(b1-4)GlcNAc
# Method in brief: as §1
# Gal(b1-4)GlcNAc(b1-2)Man = biological target: Gal(b1-4)GlcNAc(b1-2)Man
# Method in brief: as §1
# [25] = biological target: Gal(b1-4)GlcNAc(b1-2)Man(a1-3)Man(b1-4)GlcNAc(b1-4)GlcNAc
# Method in brief: as §1
# [26] = biological target: Gal(b1-4)GlcNAc(b1-2)Man(a1-3)[Gal(b1-4)GlcNAc(b1-2)Man(a1-6)]Man(b1-4)GlcNAc(b1-4)GlcNAc
# Method in brief: as §1
# [27] = biological target: Gal(b1-4)GlcNAc(b1-2)Man(a1-3)[Gal(b1-4)GlcNAc(b1-2)Man(a1-6)]Man(b1-4)GlcNAc(b1-4)[Fuc(a1-6)]GlcNAc
# Method in brief: as §1
# [28] = biological target: Gal(b1-4)GlcNAc(b1-2)Man(a1-3)[Gal(b1-4)GlcNAc(b1-2)][GlcNAc(b1-4)]Man(b1-4)GlcNAc(b1-4)GlcNAc
# Method in brief: as §1
# [29] = biological target: Gal(b1-4)GlcNAc(b1-2)Man(a1-3)[GlcNAc(b1-2)Man(a1-6)]Man(b1-4)GlcNAc(b1-4)GlcNAc
# Method in brief: as §1
# [30] = biological target: Gal(b1-4)GlcNAc(b1-2)Man(a1-3)[Man(a1-6)]Man(b1-4)GlcNAc(b1-4)GlcNAc
# Method in brief: as §1
# [31] = biological target: Gal(b1-4)GlcNAc(b1-2)Man(a1-6)Man(b1-4)GlcNAc(b1-4)GlcNAc
# Method in brief: as §1
# [32] = biological target: Gal(b1-4)GlcNAc(b1-2)Man(a1-6)[GlcNAc(b1-2)Man(a1-3)]Man(b1-4)GlcNAc(b1-4)GlcNAc
# Method in brief: as §1
# [33] = biological target: Gal(b1-4)GlcNAc(b1-2)Man(a1-6)[Man(a1-3)]Man(b1-4)GlcNAc(b1-4)GlcNAc
# Method in brief: as §1
# [34] = biological target: Gal(b1-4)GlcNAc(b1-2)[Gal(b1-4)GlcNAc(b1-4)]Man(a1-3)[Gal(b1-4)GlcNAc(b1-2)Man(a1-6)]Man(b1-4)GlcNAc(b1-4)GlcNAc
# Method in brief: as §1
# [35] = biological target: Gal(b1-4)GlcNAc(b1-2)[Gal(b1-4)GlcNAc(b1-4)]Man(a1-3)[Gal(b1-4)GlcNAc(b1-2)[Gal(b1-4)GlcNAc(b1-6)]Man(a1-6)]Man(b1-4)GlcNAc(b1-4)GlcNAc
# Method in brief: as §1
# [36] = biological target: Gal(b1-4)GlcNAc(b1-2)[Gal(b1-4)GlcNAc(b1-4)]Man(a1-3)[GlcNAc(b1-4)][Gal(b1-4)GlcNAc(b1-2)Man(a1-6)]Man(b1-4)GlcNAc(b1-4)GlcNAc
# Method in brief: as §1
# [37] = biological target: Gal(b1-4)GlcNAc(b1-2)[Gal(b1-4)GlcNAc(b1-4)]Man(a1-3)[GlcNAc(b1-4)][Gal(b1-4)GlcNAc(b1-2)[Gal(b1-4)GlcNAc(b1-6)]Man(a1-6)]Man(b1-4)GlcNAc(b1-4)GlcNAc
# Method in brief: as §1
# [38] = biological target: Gal(b1-4)GlcNAc(b1-2)[Gal(b1-4)GlcNAc(b1-6)]Man(a1-6)[Gal(b1-4)GlcNAc(b1-2)Man(a1-3)]Man(b1-4)GlcNAc(b1-4)GlcNAc
# Method in brief: as §1
# [39] = biological target: Gal(b1-4)GlcNAc(b1-2)[Gal(b1-4)GlcNAc(b1-6)]Man(a1-6)[GlcNAc(b1-4)][Gal(b1-4)GlcNAc(b1-2)Man(a1-3)]Man(b1-4)GlcNAc(b1-4)GlcNAc
# Method in brief: as §1
# [40] = biological target: Gal(b1-4)GlcNAc(b1-3)Gal(b1-3)GlcNAc
# Method in brief: as §1
binder,measurement,setting,value
B1,glycan array binding signal (z-score),[1],-0.168
same,glycan array binding signal (z-score),[2],-0.157
same,glycan array binding signal (z-score),[3],-0.209
same,glycan array binding signal (z-score),[4],-0.917
same,glycan array binding signal (z-score),[5],-1.14
same,glycan array binding signal (z-score),[6],0.819
same,glycan array binding signal (z-score),[7],-0.473
same,glycan array binding signal (z-score),[8],1
same,glycan array binding signal (z-score),[9],1.49
same,glycan array binding signal (z-score),[10],2.03
same,glycan array binding signal (z-score),[11],2.02
same,glycan array binding signal (z-score),[12],-0.478
same,glycan array binding signal (z-score),[13],-0.241
same,glycan array binding signal (z-score),[14],0.671
same,glycan array binding signal (z-score),[15],-0.512
same,glycan array binding signal (z-score),[16],-0.794
same,glycan array binding signal (z-score),[17],-0.846
same,glycan array binding signal (z-score),[18],-1.34
same,glycan array binding signal (z-score),[19],-0.164
same,glycan array binding signal (z-score),[20],0.844
same,glycan array binding signal (z-score),[21],-1.45
same,glycan array binding signal (z-score),Gal(b1-4)Gal,-0.601
same,glycan array binding signal (z-score),[22],-0.429
same,glycan array binding signal (z-score),[23],0.058
same,glycan array binding signal (z-score),Gal(b1-4)Glc,0.03
same,glycan array binding signal (z-score),Gal(b1-4)Glc6S,0.516
same,glycan array binding signal (z-score),Gal(b1-4)GlcNAc,-0.125
same,glycan array binding signal (z-score),[24],-1
same,glycan array binding signal (z-score),Gal(b1-4)GlcNAc(b1-2)Man,0.447
same,glycan array binding signal (z-score),[25],-0.143
same,glycan array binding signal (z-score),[26],-0.273
same,glycan array binding signal (z-score),[27],0.022
same,glycan array binding signal (z-score),[28],-1.67
same,glycan array binding signal (z-score),[29],-0.132
same,glycan array binding signal (z-score),[30],-0.929
same,glycan array binding signal (z-score),[31],0.45
same,glycan array binding signal (z-score),[32],0.131
same,glycan array binding signal (z-score),[33],0.152
same,glycan array binding signal (z-score),[34],0.506
same,glycan array binding signal (z-score),[35],-0.404
same,glycan array binding signal (z-score),[36],-0.919
same,glycan array binding signal (z-score),[37],1.02
same,glycan array binding signal (z-score),[38],-0.682
same,glycan array binding signal (z-score),[39],0.433
same,glycan array binding signal (z-score),[40],-0.09

# Part of the list above, reformatted:
binder	measurement	setting	value
B1	glycan array binding signal (z-score)	[28]	-1.67
same	glycan array binding signal (z-score)	[29]	-0.132
same	glycan array binding signal (z-score)	[30]	-0.929
same	glycan array binding signal (z-score)	[31]	0.45
